Measured values reported in the supplement of paper PMC8728848.
This is one part of the list.

Columns and labels:
Assay in all cases: glycan array binding signal (z-score within array); higher = stronger binding
Conditions in all cases: glycan notation: IUPAC condensed, linker removed
[1] = target: Neu5Ac(a2-3)Gal(b1-3)[Neu5Ac(a2-6)]GalNAc
Summary of the method: (§1)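 Glycan array binding is given as a within-array Z-score, which can be read as non-binding when negative. The arrays, 3228 of them, came from the Consortium for Functional Glycomics database and were retained only where the protein sequence was available. Z-scores were averaged across arrays of the same protein sequence at different concentrations or buffers and across linkers.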

Neu5Ac(a2-3)Gal(b1-4)Glc = target: Neu5Ac(a2-3)Gal(b1-4)Glc
Summary of the method: as §1

[2] = target: Neu5Ac(a2-3)Gal(b1-4)GlcNAc
Summary of the method: as §1

[3] = target: Neu5Ac(a2-3)Gal(b1-4)GlcNAc(b1-3)Gal(b1-3)GlcNAc
Summary of the method: as §1

[4] = target: Neu5Ac(a2-3)Gal(b1-4)GlcNAc(b1-3)Gal(b1-4)GlcNAc
Summary of the method: as §1

[5] = target: Neu5Ac(a2-3)Gal(b1-4)GlcNAc(b1-3)Gal(b1-4)GlcNAc(b1-3)Gal(b1-4)GlcNAc
Summary of the method: as §1

[6] = target: Neu5Ac(a2-3)Gal(b1-4)GlcNAc(b1-3)Gal(b1-4)[Fuc(a1-3)]GlcNAc
Summary of the method: as §1

[7] = target: Neu5Ac(a2-3)Gal(b1-4)GlcNAc(b1-6)[Gal(b1-3)]GalNAc
Summary of the method: as §1

[8] = target: Neu5Ac(a2-3)Gal(b1-4)GlcNAc6S
Summary of the method: as §1

[9] = target: Neu5Ac(a2-3)Gal(b1-4)[Fuc(a1-3)]GlcNAc
Summary of the method: as §1

[10] = target: Neu5Ac(a2-3)Gal(b1-4)[Fuc(a1-3)]GlcNAc(b1-3)Gal
Summary of the method: as §1

[11] = target: Neu5Ac(a2-3)Gal(b1-4)[Fuc(a1-3)]GlcNAc(b1-3)Gal(b1-4)GlcNAc
Summary of the method: as §1

[12] = target: Neu5Ac(a2-3)Gal(b1-4)[Fuc(a1-3)]GlcNAc(b1-3)Gal(b1-4)[Fuc(a1-3)]GlcNAc(b1-3)Gal(b1-4)[Fuc(a1-3)]GlcNAc
Summary of the method: as §1

[13] = target: Neu5Ac(a2-3)Gal(b1-4)[Fuc(a1-3)]GlcNAc6S
Summary of the method: as §1

[14] = target: Neu5Ac(a2-3)Gal6S(b1-4)GlcNAc
Summary of the method: as §1

[15] = target: Neu5Ac(a2-3)Gal6S(b1-4)[Fuc(a1-3)]GlcNAc
Summary of the method: as §1

Neu5Ac(a2-3)GalNAc = target: Neu5Ac(a2-3)GalNAc
Summary of the method: as §1

[16] = target: Neu5Ac(a2-3)GalNAc(b1-4)GlcNAc
Summary of the method: as §1

[17] = target: Neu5Ac(a2-3)[GalNAc(b1-4)]Gal(b1-4)Glc
Summary of the method: as §1

[18] = target: Neu5Ac(a2-3)[GalNAc(b1-4)]Gal(b1-4)GlcNAc
Summary of the method: as §1

[19] = target: Neu5Ac(a2-3)[Neu5Ac(a2-6)]GalNAc
Summary of the method: as §1

[20] = target: Neu5Ac(a2-6)Gal(b1-4)GlcNAc
Summary of the method: as §1

[21] = target: Neu5Ac(a2-6)Gal(b1-4)GlcNAc(b1-2)Man(a1-3)[Neu5Ac(a2-6)Gal(b1-4)GlcNAc(b1-2)Man(a1-6)]Man(b1-4)GlcNAc(b1-4)GlcNAc
Summary of the method: as §1

[22] = target: Neu5Ac(a2-6)Gal(b1-4)GlcNAc(b1-3)Gal(b1-4)GlcNAc
Summary of the method: as §1

[23] = target: Neu5Ac(a2-6)Gal(b1-4)GlcNAc(b1-3)Gal(b1-4)[Fuc(a1-3)]GlcNAc(b1-3)Gal(b1-4)[Fuc(a1-3)]GlcNAc
Summary of the method: as §1

[24] = target: Neu5Ac(a2-6)Gal(b1-4)GlcNAc6S
Summary of the method: as §1

Neu5Ac(a2-6)GalNAc = target: Neu5Ac(a2-6)GalNAc
Summary of the method: as §1

[25] = target: Neu5Ac(a2-6)GalNAc(b1-4)GlcNAc
Summary of the method: as §1

Neu5Ac(a2-8)Neu5Ac = target: Neu5Ac(a2-8)Neu5Ac
Summary of the method: as §1

[26] = target: Neu5Ac(a2-8)Neu5Ac(a2-3)Gal(b1-4)Glc
Summary of the method: as §1

[27] = target: Neu5Ac(a2-8)Neu5Ac(a2-3)[GalNAc(b1-4)]Gal(b1-4)Glc
Summary of the method: as §1

[28] = target: Neu5Ac(a2-8)Neu5Ac(a2-8)Neu5Ac
Summary of the method: as §1

[29] = target: Neu5Ac(a2-8)Neu5Ac(a2-8)Neu5Ac(a2-3)Gal(b1-4)Glc
Summary of the method: as §1

[30] = target: Neu5Ac(a2-8)Neu5Ac(a2-8)Neu5Ac(a2-3)[GalNAc(b1-4)]Gal(b1-4)Glc
Summary of the method: as §1

[31] = target: Neu5Ac(a2-8)Neu5Ac(a2-8)Neu5Ac(a2-8)Neu5Ac(a2-3)[GalNAc(b1-4)]Gal(b1-4)Glc
Summary of the method: as §1

[32] = target: Neu5Ac9Ac(a2-6)Gal(b1-4)GlcNAc
Summary of the method: as §1

[33] = target: Neu5Gc(a2-3)Gal(b1-3)GlcNAc
Summary of the method: as §1

[34] = target: Neu5Gc(a2-3)Gal(b1-3)[Fuc(a1-4)]GlcNAc
Summary of the method: as §1

Neu5Gc(a2-3)Gal(b1-4)Glc = target: Neu5Gc(a2-3)Gal(b1-4)Glc
Summary of the method: as §1

[35] = target: Neu5Gc(a2-3)Gal(b1-4)GlcNAc
Summary of the method: as §1

[36] = target: Neu5Gc(a2-3)Gal(b1-4)[Fuc(a1-4)]GlcNAc
Summary of the method: as §1

[37] = target: Neu5Gc(a2-6)Gal(b1-4)GlcNAc
Summary of the method: as §1

Neu5Gc(a2-6)GalNAc = target: Neu5Gc(a2-6)GalNAc
Summary of the method: as §1

B1: MLTim-4 (Mus musculus), Q6U7R4 (protein)
chain: MSKGLLLLWLVTELWWLYLTPAASEDTIIGFLGQPVTLPCHYLSWSQSRNSMCWGKGSCPNSKCNAELLRTDGTRIISRKSTKYTLLGKVQFGEVSLTISNTNRGDSGVYCCRIEVPGWFNDVKKNVRLELRRAT
glycan array binding signal (z-score) [1]: -0.808 | glycan array binding signal (z-score) (Neu5Ac(a2-3)Gal(b1-4)Glc): -0.295 | glycan array binding signal (z-score) [2]: -0.36 | glycan array binding signal (z-score) [3]: -0.655 | glycan array binding signal (z-score) [4]: -0.088 | glycan array binding signal (z-score) [5]: -1.1 | glycan array binding signal (z-score) [6]: -0.514 | glycan array binding signal (z-score) [7]: -0.353 | glycan array binding signal (z-score) [8]: 0.304 | glycan array binding signal (z-score) [9]: -0.788 | glycan array binding signal (z-score) [10]: -0.664 | glycan array binding signal (z-score) [11]: 0.794 | glycan array binding signal (z-score) [12]: -0.204 | glycan array binding signal (z-score) [13]: -1.09 | glycan array binding signal (z-score) [14]: -0.852 | glycan array binding signal (z-score) [15]: -0.672 | glycan array binding signal (z-score) (Neu5Ac(a2-3)GalNAc): 0.559 | glycan array binding signal (z-score) [16]: -0.995 | glycan array binding signal (z-score) [17]: -1 | glycan array binding signal (z-score) [18]: -0.766 | glycan array binding signal (z-score) [19]: -0.214 | glycan array binding signal (z-score) [20]: -0.378 | glycan array binding signal (z-score) [21]: -0.9 | glycan array binding signal (z-score) [22]: -1.16 | glycan array binding signal (z-score) [23]: -0.767 | glycan array binding signal (z-score) [24]: -0.485 | glycan array binding signal (z-score) (Neu5Ac(a2-6)GalNAc): -0.246 | glycan array binding signal (z-score) [25]: -0.425 | glycan array binding signal (z-score) (Neu5Ac(a2-8)Neu5Ac): 0.032 | glycan array binding signal (z-score) [26]: -0.77 | glycan array binding signal (z-score) [27]: -0.484 | glycan array binding signal (z-score) [28]: -0.988 | glycan array binding signal (z-score) [29]: -0.679 | glycan array binding signal (z-score) [30]: -0.741 | glycan array binding signal (z-score) [31]: -0.763 | glycan array binding signal (z-score) [32]: -0.361 | glycan array binding signal (z-score) [33]: -0.343 | glycan array binding signal (z-score) [34]: 0.211 | glycan array binding signal (z-score) (Neu5Gc(a2-3)Gal(b1-4)Glc): 0.349 | glycan array binding signal (z-score) [35]: -0.396 | glycan array binding signal (z-score) [36]: 1.3 | glycan array binding signal (z-score) [37]: 0.102 | glycan array binding signal (z-score) (Neu5Gc(a2-6)GalNAc): -0.077
